# Test results as given in the supplement of paper PMC8728848.
# Some of the results follow.
# B1: a L Fucosidase (Thermotoga maritima) (protein)
# chain: MASMKPRYKPDWESLREHTVPKWFDKAKFGIFIHWGIYSVPGWATPTGELGKVPMDAWFFQNPYAEWYENSLRIKESPTWEYHVKTYGENFEYEKFADLFTAEKWDPQEWADLFKKAGAKYVIPTTKHHDGFCLWGTKYTDFNSVKRGPKRDLVGDLAKAVREAGLRFGVYYSGGLDWRFTTEPIRYPEDLSYIRPNTYEYADYAYKQVMELVDLYLPDVLWNNMGWPEKGKEDLKYLFAYYYNKHPEGSVNDRWGVPHWDFKTAEYHVNYPGDLPGYKWEFTRGIGLSFGYNRNEGPEHMLSVEQLVYTLVDVVSKGGNLLLNVGPKGDGTIPDLQKERLLGLGEWLRKYGDAIYGTSVWERCCAKTEDGTEIRFTRKCNRIFVIFLGIPTGEKIVIEDLNLSAGTVRHFLTGERLSFKNVGKNLEITVPKKLLETDSITLVLEAVEE
# Experiments:
# Experiment in all cases: glycan array binding signal (z-score within array); higher = stronger binding
# Conditions in all cases: glycan notation: IUPAC condensed, linker removed; mutation: D224N
# Neu5Ac(a2-6)Gal = biological target: Neu5Ac(a2-6)Gal
# Method in brief: (§1)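 The binding signal is a Z-score computed within each array. Data were drawn from 3228 arrays in the Consortium for Functional Glycomics database, restricted to those with a known protein sequence. Scores were averaged over arrays of the same protein sequence at different concentrations or buffers, and over linkers, and negative values can be taken as non-binding.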
# [1] = biological target: Neu5Ac(a2-6)Gal(b1-3)GlcNAc(b1-3)[Gal(b1-4)GlcNAc(b1-6)]Gal(b1-4)Glc
# Method in brief: as §1
# Neu5Ac(a2-6)Gal(b1-4)Glc = biological target: Neu5Ac(a2-6)Gal(b1-4)Glc
# Method in brief: as §1
# [2] = biological target: Neu5Ac(a2-6)Gal(b1-4)GlcNAc
# Method in brief: as §1
# [3] = biological target: Neu5Ac(a2-6)Gal(b1-4)GlcNAc(b1-2)Man
# Method in brief: as §1
# [4] = biological target: Neu5Ac(a2-6)Gal(b1-4)GlcNAc(b1-2)Man(a1-3)Man(b1-4)GlcNAc(b1-4)GlcNAc
# Method in brief: as §1
# [5] = biological target: Neu5Ac(a2-6)Gal(b1-4)GlcNAc(b1-2)Man(a1-3)[Gal(b1-4)GlcNAc(b1-2)Man(a1-6)]Man(b1-4)GlcNAc(b1-4)GlcNAc
# Method in brief: as §1
# [6] = biological target: Neu5Ac(a2-6)Gal(b1-4)GlcNAc(b1-2)Man(a1-3)[GlcNAc(b1-2)Man(a1-6)]Man(b1-4)GlcNAc(b1-4)GlcNAc
# Method in brief: as §1
# [7] = biological target: Neu5Ac(a2-6)Gal(b1-4)GlcNAc(b1-2)Man(a1-3)[GlcNAc(b1-4)][Neu5Ac(a2-6)Gal(b1-4)GlcNAc(b1-2)Man(a1-6)]Man(b1-4)GlcNAc(b1-4)GlcNAc
# Method in brief: as §1
# [8] = biological target: Neu5Ac(a2-6)Gal(b1-4)GlcNAc(b1-2)Man(a1-3)[Man(a1-6)]Man(b1-4)GlcNAc(b1-4)GlcNAc
# Method in brief: as §1
# [9] = biological target: Neu5Ac(a2-6)Gal(b1-4)GlcNAc(b1-2)Man(a1-3)[Neu5Ac(a2-3)Gal(b1-4)GlcNAc(b1-2)Man(a1-6)]Man(b1-4)GlcNAc(b1-4)GlcNAc
# Method in brief: as §1
# [10] = biological target: Neu5Ac(a2-6)Gal(b1-4)GlcNAc(b1-2)Man(a1-3)[Neu5Ac(a2-6)Gal(b1-4)GlcNAc(b1-2)Man(a1-6)]Man(b1-4)GlcNAc(b1-4)GlcNAc
# Method in brief: as §1
# [11] = biological target: Neu5Ac(a2-6)Gal(b1-4)GlcNAc(b1-2)Man(a1-3)[Neu5Ac(a2-6)Gal(b1-4)GlcNAc(b1-2)Man(a1-6)]Man(b1-4)GlcNAc(b1-4)[Fuc(a1-6)]GlcNAc
# Method in brief: as §1
# [12] = biological target: Neu5Ac(a2-6)Gal(b1-4)GlcNAc(b1-2)Man(a1-6)Man(b1-4)GlcNAc(b1-4)GlcNAc
# Method in brief: as §1
# [13] = biological target: Neu5Ac(a2-6)Gal(b1-4)GlcNAc(b1-2)Man(a1-6)[Gal(b1-4)GlcNAc(b1-2)Man(a1-3)]Man(b1-4)GlcNAc(b1-4)GlcNAc
# Method in brief: as §1
# [14] = biological target: Neu5Ac(a2-6)Gal(b1-4)GlcNAc(b1-2)Man(a1-6)[GlcNAc(b1-2)Man(a1-3)]Man(b1-4)GlcNAc(b1-4)GlcNAc
# Method in brief: as §1
# [15] = biological target: Neu5Ac(a2-6)Gal(b1-4)GlcNAc(b1-2)Man(a1-6)[Man(a1-3)]Man(b1-4)GlcNAc(b1-4)GlcNAc
# Method in brief: as §1
# [16] = biological target: Neu5Ac(a2-6)Gal(b1-4)GlcNAc(b1-2)[Neu5Ac(a2-6)Gal(b1-4)GlcNAc(b1-4)]Man(a1-3)[GlcNAc(b1-4)][Neu5Ac(a2-6)Gal(b1-4)GlcNAc(b1-2)[Neu5Ac(a2-6)Gal(b1-4)GlcNAc(b1-6)]Man(a1-6)]Man(b1-4)GlcNAc(b1-4)GlcNAc
# Method in brief: as §1
# [17] = biological target: Neu5Ac(a2-6)Gal(b1-4)GlcNAc(b1-2)[Neu5Ac(a2-6)Gal(b1-4)GlcNAc(b1-4)]Man(a1-3)[GlcNAc(b1-4)][Neu5Ac(a2-6)Gal(b1-4)GlcNAc(b1-4)Man(a1-6)]Man(b1-4)GlcNAc(b1-4)GlcNAc
# Method in brief: as §1
# [18] = biological target: Neu5Ac(a2-6)Gal(b1-4)GlcNAc(b1-2)[Neu5Ac(a2-6)Gal(b1-4)GlcNAc(b1-6)]Man(a1-6)[Neu5Ac(a2-6)Gal(b1-4)GlcNAc(b1-2)Man(a1-3)][GlcNAc(b1-4)]Man(b1-4)GlcNAc(b1-4)GlcNAc
# Method in brief: as §1
# [19] = biological target: Neu5Ac(a2-6)Gal(b1-4)GlcNAc(b1-3)Gal(b1-3)GlcNAc
# Method in brief: as §1
# [20] = biological target: Neu5Ac(a2-6)Gal(b1-4)GlcNAc(b1-3)Gal(b1-4)GlcNAc
# Method in brief: as §1
# [21] = biological target: Neu5Ac(a2-6)Gal(b1-4)GlcNAc(b1-3)Gal(b1-4)GlcNAc(b1-2)Man(a1-3)[Neu5Ac(a2-6)Gal(b1-4)GlcNAc(b1-3)Gal(b1-4)GlcNAc(b1-2)Man(a1-6)]GalNAc
# Method in brief: as §1
# [22] = biological target: Neu5Ac(a2-6)Gal(b1-4)GlcNAc(b1-3)Gal(b1-4)GlcNAc(b1-3)Gal(b1-4)GlcNAc
# Method in brief: as §1
# [23] = biological target: Neu5Ac(a2-6)Gal(b1-4)GlcNAc(b1-3)Gal(b1-4)GlcNAc(b1-3)Gal(b1-4)GlcNAc(b1-2)Man(a1-3)[Neu5Ac(a2-6)Gal(b1-4)GlcNAc(b1-3)Gal(b1-4)GlcNAc(b1-3)Gal(b1-4)GlcNAc(b1-2)Man(a1-6)]GalNAc
# Method in brief: as §1
# [24] = biological target: Neu5Ac(a2-6)Gal(b1-4)GlcNAc(b1-3)Gal(b1-4)GlcNAc(b1-3)GalNAc
# Method in brief: as §1
# [25] = biological target: Neu5Ac(a2-6)Gal(b1-4)GlcNAc(b1-3)Gal(b1-4)GlcNAc(b1-3)[Neu5Ac(a2-6)Gal(b1-4)GlcNAc(b1-3)Gal(b1-4)GlcNAc(b1-6)]GalNAc
# Method in brief: as §1
# [26] = biological target: Neu5Ac(a2-6)Gal(b1-4)GlcNAc(b1-3)Gal(b1-4)GlcNAc(b1-6)[Gal(b1-3)]GalNAc
# Method in brief: as §1
# [27] = biological target: Neu5Ac(a2-6)Gal(b1-4)GlcNAc(b1-3)Gal(b1-4)[Fuc(a1-3)]GlcNAc(b1-3)Gal(b1-4)[Fuc(a1-3)]GlcNAc
# Method in brief: as §1
# [28] = biological target: Neu5Ac(a2-6)Gal(b1-4)GlcNAc(b1-3)GalNAc
# Method in brief: as §1
# [29] = biological target: Neu5Ac(a2-6)Gal(b1-4)GlcNAc(b1-3)[Neu5Ac(a2-6)Gal(b1-4)GlcNAc(b1-6)]GalNAc
# Method in brief: as §1
# [30] = biological target: Neu5Ac(a2-6)Gal(b1-4)GlcNAc(b1-6)GalNAc
# Method in brief: as §1
# [31] = biological target: Neu5Ac(a2-6)Gal(b1-4)GlcNAc(b1-6)[Gal(b1-3)GlcNAc(b1-3)]Gal(b1-4)Glc
# Method in brief: as §1
# [32] = biological target: Neu5Ac(a2-6)Gal(b1-4)GlcNAc(b1-6)[Gal(b1-3)]GalNAc
# Method in brief: as §1
# [33] = biological target: Neu5Ac(a2-6)Gal(b1-4)GlcNAc6S
# Method in brief: as §1
# Neu5Ac(a2-6)GalNAc = biological target: Neu5Ac(a2-6)GalNAc
# Method in brief: as §1
# [34] = biological target: Neu5Ac(a2-6)GalNAc(b1-4)GlcNAc
# Method in brief: as §1
# [35] = biological target: Neu5Ac(a2-6)GalNAc(b1-4)GlcNAc6S
# Method in brief: as §1
binder,measurement,setting,value
B1,glycan array binding signal (z-score),Neu5Ac(a2-6)Gal,-0.576
same,glycan array binding signal (z-score),[1],-0.45
same,glycan array binding signal (z-score),Neu5Ac(a2-6)Gal(b1-4)Glc,0.312
same,glycan array binding signal (z-score),[2],0.226
same,glycan array binding signal (z-score),[3],0.122
same,glycan array binding signal (z-score),[4],1.99
same,glycan array binding signal (z-score),[5],0.382
same,glycan array binding signal (z-score),[6],0.195
same,glycan array binding signal (z-score),[7],0.496
same,glycan array binding signal (z-score),[8],0.075
same,glycan array binding signal (z-score),[9],-0.737
same,glycan array binding signal (z-score),[10],0.562
same,glycan array binding signal (z-score),[11],1.27
same,glycan array binding signal (z-score),[12],-0.036
same,glycan array binding signal (z-score),[13],-0.143
same,glycan array binding signal (z-score),[14],-0.372
same,glycan array binding signal (z-score),[15],0.081
same,glycan array binding signal (z-score),[16],0.25
same,glycan array binding signal (z-score),[17],-0.195
same,glycan array binding signal (z-score),[18],0.657
same,glycan array binding signal (z-score),[19],-0.308
same,glycan array binding signal (z-score),[20],-1.06
same,glycan array binding signal (z-score),[21],2.02
same,glycan array binding signal (z-score),[22],0.676
same,glycan array binding signal (z-score),[23],10.5
same,glycan array binding signal (z-score),[24],-1.27
same,glycan array binding signal (z-score),[25],1.43
same,glycan array binding signal (z-score),[26],0.088
same,glycan array binding signal (z-score),[27],-0.035
same,glycan array binding signal (z-score),[28],1.83
same,glycan array binding signal (z-score),[29],0.112
same,glycan array binding signal (z-score),[30],0.167
same,glycan array binding signal (z-score),[31],-0.838
same,glycan array binding signal (z-score),[32],1.05
same,glycan array binding signal (z-score),[33],-0.69
same,glycan array binding signal (z-score),Neu5Ac(a2-6)GalNAc,-0.767
same,glycan array binding signal (z-score),[34],-1.05
same,glycan array binding signal (z-score),[35],-0.271
